This assay addresses T1, CFluc(398-550)-Hif-1α.
T1 construct: also called CFluc-HIF-1α; CFluc-Hif1α
T1 chain: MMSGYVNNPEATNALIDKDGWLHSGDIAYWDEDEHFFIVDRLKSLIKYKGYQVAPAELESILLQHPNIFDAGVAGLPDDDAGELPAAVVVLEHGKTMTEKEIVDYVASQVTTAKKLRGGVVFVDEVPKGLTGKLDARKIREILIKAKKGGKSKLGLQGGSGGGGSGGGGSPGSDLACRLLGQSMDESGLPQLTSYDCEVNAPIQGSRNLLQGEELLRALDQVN
Briefly: cell-free split-luciferase reassembly, rabbit reticulocyte lysate.

B1: p300-NFluc(2-416) (other)
chain: MGSGAHTADPEKRKLIQQQLVLLLHAHKCQRREQANGEVRQCNLPHCRTMKNVLNHMTHCQSGKSCQVAHCASSRQIISHWKNCTRHDCPVCLPLKNAGDKTGGGGGSGGGGSGGGGTEDAKNIKKGPAPFYPLEDGTAGEQLHKAMKRYALVPGTIAFTDAHIEVNITYAEYFEMSVRLAEAMKRYGLNTNHRIVVCSENSLQFFMPVLGALFIGVAVAPANDIYNERELLNSMNISQPTVVFVSKKGLQKILNVQKKLPIIQKIIIMDSKTDYQGFQSMYTFVTSHLPPGFNEYDFVPESFDRDKTIALIMNSSGSTGLPKGVALPHRTACVRFSHARDPIFGNQIIPDTAILSVVPFHHGFGMFTTLGYLICGFRVVLMYRFEEELFLRSLQDYKIQSALLVPTLFSFFAKSTLIDKYDLSNLHEIASGGAPLSKEVGEAVAKRFHLPGIRQGYGLTETTSAILITPEGDDKPGAVGKVVPFFEAKVVDLDTGKTLGVNQRGELCVRGPMIMSGYVNNPEATNALIDKDG
Turning to B1, the binding result is listed as “binds”.
